Each structure is given as a SMILES string. The structures given here were assigned with low confidence; some may be wrong.

The chains behind the UniProt entries cited, without tags or fusion partners.
UniProt P0AG30, whole entry: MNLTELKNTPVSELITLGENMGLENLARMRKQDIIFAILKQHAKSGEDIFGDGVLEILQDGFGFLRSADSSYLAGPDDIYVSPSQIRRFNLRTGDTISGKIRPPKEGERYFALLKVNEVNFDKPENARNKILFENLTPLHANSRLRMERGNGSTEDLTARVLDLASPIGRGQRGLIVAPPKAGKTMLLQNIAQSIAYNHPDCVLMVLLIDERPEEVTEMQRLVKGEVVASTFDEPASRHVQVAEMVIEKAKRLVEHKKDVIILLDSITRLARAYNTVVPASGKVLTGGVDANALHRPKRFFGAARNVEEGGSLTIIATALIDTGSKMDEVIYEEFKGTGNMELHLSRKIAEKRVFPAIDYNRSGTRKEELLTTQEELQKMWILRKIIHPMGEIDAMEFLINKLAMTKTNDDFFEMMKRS

The assay concerns the target rho transcription termination factor (Escherichia coli, UniProt P0AG30). Briefly: Rho poly(C)-dependent ATPase assay, inhibition by metal chelates and bicyclomycin. As to conditions: tested form: Cd (CdCl2, 1:1). Type of assay: biochemical, E. coli.

With `O[C@H](CS)[C@H](O)CS` (relative stereo), the “effect on rho poly(C)-dependent ATP hydrolysis” value ((DL)DTT 0.1-0.3 mM alone or equimolar with metal chloride, in presence of MgCl2) is given as “inhibited”. Besides, where the note is “read-out: I50, rho poly(C)-dependent ATPase activity, metal chloride + equimolar (DL)DTT (1:1), 1 mM MgCl2, FIG. 1”, the IC50 was 60 µM.

Source of the values: US20060128681A1, “Novel rho inhibitors” (priority 2002, published 2006).
